Experimental data taken from patent US10933077B2, “TLR4 inhibitors for the treatment of human infectious and inflammatory disorders” (UNIVERSITY OF PITTSBURGH—OF THE COMMONWEALTH SYSTEM OF …, priority 2010, dated 2021).
Counter-ions that a name gives are not always drawn. Some results were stated once for a whole list of compounds, not compound by compound. At least one compound was matched to its structure with a doubt left.

Test system: LPS-induced NFkB activation
Test: NFkB-luciferase reporter mice assay (LPS-induced endotoxemia)
Assay type: in vivo
Settings: 20 nanomoles test compound i.p. 30 minutes prior to LPS 2 mg/kg, 6 hrs, IVIS luciferase imaging
Protocol: Compound preparation and delivery. All 65 identified compounds were received in solid form and stored at 4° C. until use. Stock solutions of each compound were made by dissolving the appropriate amount of each compound in dimethyl sulfoxide (DMSO) to yield a concentration of 10 mM. Immediately prior to injection into experimental animals, the compounds were diluted to an experimental concentration of 100 uM in phosphate-buffered saline (PBS). Total concentration of DMSO in the final diluted drug was 1%. Compounds were closely examined to insure that no precipitate formed prior to injection and were stored on ice until injection. All compounds were given via intraperitoneal (i.p.) injection in a total volume of 200 ul using a 1 cc syringe and 27 gauge needle. In all experiments listed below, the compounds were delivered to the experimental mice 30 minutes prior to injection with lipopolysaccharide (LPS) to induce endotoxemia. Control animals not receiving compound received 1% DMSO dissolved in PBS. Following drug injection, the mice were observed closely in their cages for signs of immediate toxicity or adverse reaction to the drug, including but not limited to piloerection, tachypnea, bleeding, abnormal or aggressive behavior, signs of altered mental status, and level of activity.
Induction of endotoxemia. All mice were housed and cared for at the Rangos Research Center, Children's Hospital of Pittsburgh (Pittsburgh, Pa.). All experiments were approved by the Children's Hospital of Pittsburgh Animal Care Committee and by the Institutional Review Board of the University of Pittsburgh. Swiss Webster (CFW) and NFkB-luciferase reporter mice were obtained from The Jackson Laboratory. […]
NFkB-luciferase reporter mice assay. […] After whole body imaging, an additional injection of luciferin is given and animals were euthanized, organs were harvested, and the extent of NFkB activation within various tissues was further analyzed by an additional luminescence image of the individual organs. […]

Structure (SMILES) | inhibition of LPS-induced NFkB activation | inhibition of LPS-induced NFkB activation (phosphate, sodium salt)
CC(=O)NC1C(OC2C(O)C(CO)OC(OC3C(CO)OC(O)C(O)C3O)C2O)OC(CO)C(OC2OC(C)C(O)C(O)C2O)C1OC1OC(CO)C(O)C(O)C1OC1OC(C)C(O)C(O)C1O (stereo not drawn) [Compound 3, 4-O-(3-O-{2-(acetylamino)-2-deoxy-4-O-(6-deoxyhexopyranosyl)-3-O-[2-O-(6-deoxyhexopyranosyl)hexopyranosyl]hexopyranosyl}hexopyranosyl)hexopyranose] | inhibited LPS-induced NFkB activation to some extent | 
CC(=O)NC1C(OP(=O)(O)O)OC(CO)C(O)C1O (stereo not drawn) [Compound 4, 3-acetamido-4,5-dihydroxy-6-(hydroxymethyl)tetrahydro-2H-pyran-2-yl dihydrogen phosphate, sodium salt] |  | inhibited LPS-induced NFkB activation to some extent
CC(=O)NC1C(OC2C(O)C(CO)OC(OC(C(O)C=O)C(O)CO)C2O)OC(CO)C(O)C1OC1OC(CO)C(O)C(O)C1OC1OC(C)C(O)C(O)C1O [Compound 6, 3-O-(3-O-{2-(acetylamino)-2-deoxy-3-O-[2-O-(6-deoxyhexopyranosyl)hexopyranosyl]hexopyranosyl}hexopyranosyl)-D-arabinose] | inhibited LPS-induced NFkB activation to some extent | 
